Substitutions are numbered along the chain they refer to. In names and notes the source's numbering stands. These are yes or no findings as the source states them, for the method shown. In cells and extracts the contact can be indirect. Some binding calls cover weakened binding; strength is not graded here. Values belong to the binder of their own block, whether it stands above or below them.
Columns and labels:
G433C-C59V-ΔCCt (human) = G433C-C59V-ΔCCt (human) (UniProt P78348); experiment: cross-linking; 2 mM BMOE at the cell surface of intact Xenopus oocytes, cell-surface biotinylation, streptavidin beads, SDS-PAGE under reducing conditions, anti-His-tag western blot (ΔCCt background)
[1] = target: G433C-C59V-C61S-ΔCCt (human) (UniProt P78348); experiment: as above

- binding (G433C-C59V-ΔCCt (human)): binds
B1: G433C-C59V-ΔCCt (protein, UniProt P78348 1-527)
chain: MELKAEEEEVGGVQPVSIQAFASSSTLHGLAHIFSYERLSLKRALWALCFLGSLAVLLVVCTERVQYYFHYHHVTKLDEVAASQLTFPAVTLCNLNEFRFSQVSKNDLYHAGELLALLNNRYEIPDTQMADEKQLEILQDKANFRSFKPKPFNMREFYDRAGHDIRDMLLSCHFRGEVCSAEDFKVVFTRYGKCYTFNSGRDGRPRLKTMKGGTGNGLEIMLDIQQDEYLPVWGETDETSFEAGIKVQIHSQDEPPFIDQLGFGVAPGFQTFVACQEQRLIYLPPPWGTCKAVTMDSDLDFFDSYSITACRIDCETRYLVENCNCRMVHMPGDAPYCTPEQYKECADPALDFLVEKDQEYCVCEMPCNLTRYGKELSMVKIPSKASAKYLAKKFNKSEQYIGENILVLDIFFEVLNYETIEQKKAYEIAGLLCDIGGQMGLFIGASILTVLELFDYAYEVIKHKLARRGKAQKEAKRSSADKGVALSLDDVKRHNPAESLRGHPAGMTYAANILPHHPARGTFEDFT

- binding [1]: binds
B2: G433C-C59V-C61S-ΔCCt (protein, UniProt P78348 1-527)
chain: B1 chain with C61S

— PMC4529235
